Assay results reported in the supplement of paper PMC6411743.
± gives the standard deviation of the averaged measurements. The list shows a part of the results, in another mix than the full data. Most values lie at the level of the controls, where differences are scatter.

Protein sequences, listed by entry. Tags and fused reporters are not part of them. Lines headed by an entry give the natural chain unless they say otherwise; changes in a name come on top.
UniProt Q86VV8: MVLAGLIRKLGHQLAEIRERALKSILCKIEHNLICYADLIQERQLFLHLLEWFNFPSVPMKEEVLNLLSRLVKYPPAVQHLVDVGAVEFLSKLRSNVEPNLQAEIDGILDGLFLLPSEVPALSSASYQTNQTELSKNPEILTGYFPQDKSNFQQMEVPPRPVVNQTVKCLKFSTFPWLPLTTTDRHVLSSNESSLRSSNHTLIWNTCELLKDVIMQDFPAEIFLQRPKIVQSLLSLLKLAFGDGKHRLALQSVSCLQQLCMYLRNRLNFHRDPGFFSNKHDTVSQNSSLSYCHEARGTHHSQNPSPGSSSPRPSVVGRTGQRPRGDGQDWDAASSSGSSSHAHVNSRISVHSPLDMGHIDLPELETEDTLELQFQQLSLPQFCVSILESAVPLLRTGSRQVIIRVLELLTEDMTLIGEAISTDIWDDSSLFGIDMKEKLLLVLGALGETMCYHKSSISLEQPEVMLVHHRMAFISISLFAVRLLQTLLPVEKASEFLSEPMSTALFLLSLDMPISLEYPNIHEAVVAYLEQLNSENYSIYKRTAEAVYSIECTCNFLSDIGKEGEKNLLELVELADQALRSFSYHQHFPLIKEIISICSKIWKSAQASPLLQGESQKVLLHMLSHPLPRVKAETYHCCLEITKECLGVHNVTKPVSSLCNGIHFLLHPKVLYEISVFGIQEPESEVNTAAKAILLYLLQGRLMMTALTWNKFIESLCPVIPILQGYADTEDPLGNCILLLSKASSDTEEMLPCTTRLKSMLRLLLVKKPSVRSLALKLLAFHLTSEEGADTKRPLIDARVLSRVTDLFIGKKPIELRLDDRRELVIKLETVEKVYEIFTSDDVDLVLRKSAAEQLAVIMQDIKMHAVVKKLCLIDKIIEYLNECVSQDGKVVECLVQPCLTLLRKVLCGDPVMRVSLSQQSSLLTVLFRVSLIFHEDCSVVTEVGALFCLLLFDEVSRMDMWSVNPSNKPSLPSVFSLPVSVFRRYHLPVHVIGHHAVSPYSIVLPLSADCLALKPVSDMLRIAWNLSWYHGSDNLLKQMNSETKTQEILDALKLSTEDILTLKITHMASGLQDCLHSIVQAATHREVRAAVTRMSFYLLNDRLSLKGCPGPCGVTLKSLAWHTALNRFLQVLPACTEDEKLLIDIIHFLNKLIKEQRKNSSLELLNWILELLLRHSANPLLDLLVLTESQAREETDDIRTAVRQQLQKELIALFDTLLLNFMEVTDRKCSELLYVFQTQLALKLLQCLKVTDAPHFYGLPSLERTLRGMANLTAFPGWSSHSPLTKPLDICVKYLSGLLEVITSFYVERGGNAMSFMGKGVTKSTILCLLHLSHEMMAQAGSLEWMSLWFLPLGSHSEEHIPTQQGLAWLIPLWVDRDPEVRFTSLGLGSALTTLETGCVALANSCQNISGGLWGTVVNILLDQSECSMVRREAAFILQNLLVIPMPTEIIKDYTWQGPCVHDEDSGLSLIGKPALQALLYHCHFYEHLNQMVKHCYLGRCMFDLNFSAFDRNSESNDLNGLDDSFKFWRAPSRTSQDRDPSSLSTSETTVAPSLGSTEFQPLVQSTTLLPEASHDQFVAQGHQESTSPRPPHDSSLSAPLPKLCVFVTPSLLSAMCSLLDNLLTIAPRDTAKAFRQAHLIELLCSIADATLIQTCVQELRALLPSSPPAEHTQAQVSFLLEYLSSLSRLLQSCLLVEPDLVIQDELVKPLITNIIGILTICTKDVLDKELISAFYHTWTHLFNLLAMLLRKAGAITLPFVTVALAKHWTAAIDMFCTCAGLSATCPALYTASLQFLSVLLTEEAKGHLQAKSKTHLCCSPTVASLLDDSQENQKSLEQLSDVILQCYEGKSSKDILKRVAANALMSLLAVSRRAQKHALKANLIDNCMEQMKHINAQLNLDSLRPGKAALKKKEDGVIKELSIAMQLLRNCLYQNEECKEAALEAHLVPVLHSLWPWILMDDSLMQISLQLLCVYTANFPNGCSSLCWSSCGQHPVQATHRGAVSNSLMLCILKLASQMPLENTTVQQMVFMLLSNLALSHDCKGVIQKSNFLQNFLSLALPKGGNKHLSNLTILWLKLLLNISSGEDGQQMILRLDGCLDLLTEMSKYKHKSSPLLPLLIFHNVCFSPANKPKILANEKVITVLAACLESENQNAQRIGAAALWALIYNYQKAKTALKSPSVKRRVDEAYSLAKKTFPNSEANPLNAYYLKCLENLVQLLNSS
UniProt Q8N128: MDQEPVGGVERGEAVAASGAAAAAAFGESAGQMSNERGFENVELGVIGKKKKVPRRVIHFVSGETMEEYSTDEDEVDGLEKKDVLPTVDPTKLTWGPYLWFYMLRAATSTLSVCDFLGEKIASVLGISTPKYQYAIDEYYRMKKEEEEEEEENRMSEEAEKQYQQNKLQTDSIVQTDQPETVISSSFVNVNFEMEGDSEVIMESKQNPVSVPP
UniProt Q8NB16: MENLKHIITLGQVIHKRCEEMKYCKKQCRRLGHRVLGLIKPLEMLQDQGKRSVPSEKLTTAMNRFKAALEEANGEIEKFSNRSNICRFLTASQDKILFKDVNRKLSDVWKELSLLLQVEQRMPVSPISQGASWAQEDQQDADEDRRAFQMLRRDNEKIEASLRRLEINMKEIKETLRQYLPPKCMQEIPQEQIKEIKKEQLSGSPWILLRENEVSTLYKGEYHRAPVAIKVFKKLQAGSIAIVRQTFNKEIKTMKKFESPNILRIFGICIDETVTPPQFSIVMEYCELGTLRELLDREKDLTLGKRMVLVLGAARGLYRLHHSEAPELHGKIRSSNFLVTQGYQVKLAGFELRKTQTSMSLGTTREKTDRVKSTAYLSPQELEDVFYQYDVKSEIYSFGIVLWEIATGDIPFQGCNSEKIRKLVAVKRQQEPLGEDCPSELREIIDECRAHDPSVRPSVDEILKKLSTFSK
UniProt Q8N4V1: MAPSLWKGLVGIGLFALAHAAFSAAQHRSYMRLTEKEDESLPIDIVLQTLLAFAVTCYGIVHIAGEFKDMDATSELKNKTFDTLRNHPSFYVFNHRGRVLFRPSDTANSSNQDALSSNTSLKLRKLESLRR
UniProt Q8N5W9: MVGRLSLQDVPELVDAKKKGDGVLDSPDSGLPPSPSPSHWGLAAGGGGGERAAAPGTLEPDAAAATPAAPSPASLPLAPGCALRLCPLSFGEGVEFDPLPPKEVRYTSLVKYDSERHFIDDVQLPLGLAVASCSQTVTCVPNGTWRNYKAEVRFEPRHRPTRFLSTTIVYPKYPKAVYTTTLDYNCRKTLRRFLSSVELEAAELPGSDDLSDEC
UniProt Q7Z6K3: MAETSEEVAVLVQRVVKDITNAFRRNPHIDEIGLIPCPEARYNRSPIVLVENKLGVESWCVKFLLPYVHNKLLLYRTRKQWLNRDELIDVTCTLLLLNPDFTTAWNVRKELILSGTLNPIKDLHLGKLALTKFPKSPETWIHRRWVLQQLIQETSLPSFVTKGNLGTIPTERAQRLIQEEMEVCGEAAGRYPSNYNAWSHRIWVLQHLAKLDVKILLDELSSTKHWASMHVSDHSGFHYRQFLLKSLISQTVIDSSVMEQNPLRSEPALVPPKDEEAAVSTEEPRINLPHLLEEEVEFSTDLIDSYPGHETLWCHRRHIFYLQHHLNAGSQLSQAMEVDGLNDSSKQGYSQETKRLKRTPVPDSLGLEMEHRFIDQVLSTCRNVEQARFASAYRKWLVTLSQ
UniProt Q8N448: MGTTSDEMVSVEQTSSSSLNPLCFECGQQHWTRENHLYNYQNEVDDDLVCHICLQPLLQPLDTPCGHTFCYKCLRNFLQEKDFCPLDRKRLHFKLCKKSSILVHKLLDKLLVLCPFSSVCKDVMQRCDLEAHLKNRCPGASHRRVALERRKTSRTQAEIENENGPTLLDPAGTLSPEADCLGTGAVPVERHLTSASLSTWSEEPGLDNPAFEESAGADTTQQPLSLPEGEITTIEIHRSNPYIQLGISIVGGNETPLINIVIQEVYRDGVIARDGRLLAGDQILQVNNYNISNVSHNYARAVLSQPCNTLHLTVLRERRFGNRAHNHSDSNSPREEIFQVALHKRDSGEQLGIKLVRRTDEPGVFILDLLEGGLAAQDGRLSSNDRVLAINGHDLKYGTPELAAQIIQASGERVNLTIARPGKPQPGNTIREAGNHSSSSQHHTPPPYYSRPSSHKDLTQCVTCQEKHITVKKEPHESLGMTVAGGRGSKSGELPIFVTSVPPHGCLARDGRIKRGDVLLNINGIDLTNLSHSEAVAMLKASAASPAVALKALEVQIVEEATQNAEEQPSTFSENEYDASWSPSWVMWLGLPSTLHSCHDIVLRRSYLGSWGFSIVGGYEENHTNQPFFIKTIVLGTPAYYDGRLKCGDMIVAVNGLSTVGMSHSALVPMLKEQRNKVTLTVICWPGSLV
UniProt Q8N3C0, whole entry: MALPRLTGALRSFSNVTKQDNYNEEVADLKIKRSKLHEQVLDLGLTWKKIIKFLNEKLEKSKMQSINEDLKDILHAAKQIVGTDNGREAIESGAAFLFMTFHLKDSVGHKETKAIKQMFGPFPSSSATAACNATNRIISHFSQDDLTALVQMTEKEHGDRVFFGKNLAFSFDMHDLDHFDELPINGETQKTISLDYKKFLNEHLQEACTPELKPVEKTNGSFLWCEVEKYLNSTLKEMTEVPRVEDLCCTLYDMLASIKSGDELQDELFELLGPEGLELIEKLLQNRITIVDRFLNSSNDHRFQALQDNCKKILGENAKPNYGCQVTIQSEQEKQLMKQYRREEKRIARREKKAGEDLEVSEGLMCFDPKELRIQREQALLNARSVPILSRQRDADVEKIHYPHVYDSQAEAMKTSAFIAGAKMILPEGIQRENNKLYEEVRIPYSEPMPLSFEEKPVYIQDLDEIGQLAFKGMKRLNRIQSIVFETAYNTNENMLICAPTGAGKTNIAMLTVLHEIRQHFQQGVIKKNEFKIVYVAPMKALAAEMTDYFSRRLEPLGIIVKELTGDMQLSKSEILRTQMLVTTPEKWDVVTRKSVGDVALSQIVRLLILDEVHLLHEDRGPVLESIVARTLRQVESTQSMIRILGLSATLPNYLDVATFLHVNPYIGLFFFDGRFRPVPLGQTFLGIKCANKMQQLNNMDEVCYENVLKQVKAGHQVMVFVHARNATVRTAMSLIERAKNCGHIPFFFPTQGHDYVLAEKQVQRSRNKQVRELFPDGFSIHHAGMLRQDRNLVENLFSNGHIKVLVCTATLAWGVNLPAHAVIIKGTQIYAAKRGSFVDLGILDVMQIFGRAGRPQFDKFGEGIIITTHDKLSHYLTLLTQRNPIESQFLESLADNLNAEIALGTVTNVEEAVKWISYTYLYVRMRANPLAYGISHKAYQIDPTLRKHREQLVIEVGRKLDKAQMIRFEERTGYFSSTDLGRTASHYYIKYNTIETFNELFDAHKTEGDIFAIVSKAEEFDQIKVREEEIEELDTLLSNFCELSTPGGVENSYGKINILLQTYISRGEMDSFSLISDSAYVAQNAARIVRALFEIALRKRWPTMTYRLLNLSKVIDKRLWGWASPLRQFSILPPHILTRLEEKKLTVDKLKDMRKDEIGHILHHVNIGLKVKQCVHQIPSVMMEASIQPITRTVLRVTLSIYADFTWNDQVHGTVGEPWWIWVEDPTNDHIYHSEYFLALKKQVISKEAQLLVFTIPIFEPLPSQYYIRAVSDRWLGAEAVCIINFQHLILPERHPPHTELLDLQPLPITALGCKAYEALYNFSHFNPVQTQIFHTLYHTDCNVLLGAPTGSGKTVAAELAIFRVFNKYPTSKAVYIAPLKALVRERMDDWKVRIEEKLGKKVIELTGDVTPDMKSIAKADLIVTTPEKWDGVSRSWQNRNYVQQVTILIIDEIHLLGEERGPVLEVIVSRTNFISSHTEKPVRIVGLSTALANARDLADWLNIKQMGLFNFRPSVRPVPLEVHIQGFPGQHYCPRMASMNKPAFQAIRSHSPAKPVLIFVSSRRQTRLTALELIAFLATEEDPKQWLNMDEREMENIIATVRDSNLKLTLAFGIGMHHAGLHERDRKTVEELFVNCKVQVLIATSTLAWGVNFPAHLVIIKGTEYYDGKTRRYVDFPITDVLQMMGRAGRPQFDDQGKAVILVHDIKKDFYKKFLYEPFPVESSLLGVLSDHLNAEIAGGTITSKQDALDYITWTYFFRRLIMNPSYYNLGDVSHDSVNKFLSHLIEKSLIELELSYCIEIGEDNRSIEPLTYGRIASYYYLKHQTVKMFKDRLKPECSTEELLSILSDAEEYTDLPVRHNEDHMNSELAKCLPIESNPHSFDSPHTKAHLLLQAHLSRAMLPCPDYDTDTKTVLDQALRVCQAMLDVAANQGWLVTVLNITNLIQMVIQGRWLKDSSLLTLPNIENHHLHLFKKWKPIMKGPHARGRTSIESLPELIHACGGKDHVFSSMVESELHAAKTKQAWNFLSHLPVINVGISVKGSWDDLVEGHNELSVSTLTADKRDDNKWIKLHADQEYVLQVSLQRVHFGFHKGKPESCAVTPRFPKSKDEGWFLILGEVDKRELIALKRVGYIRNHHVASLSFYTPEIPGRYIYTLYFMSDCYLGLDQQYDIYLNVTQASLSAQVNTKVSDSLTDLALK

These targets were tested with Nc1ncnc2c1ncn2[C@@H]1O[C@H](COP(=O)(O)OP(=O)(O)NP(=O)(O)O)[C@@H](O)[C@H]1O [adenylyl imidodiphosphate] (assay: NP40-soluble protein abundance relative to vehicle (solubility fold change) (ratio); higher = more soluble protein in presence of AMP-PNP). Conditions: concentration: 0.1mM.
Method in brief: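 Values are fold changes against the detergent-processed vehicle, based on vsn-normalised intensities. Jurkat crude lysate was treated at eight concentrations from 0.1 to 10 mM (10 min at room temperature, then 3 min at 37 °C), solubilised with 0.8% NP40 and benzonase, ultracentrifuged and analysed by TMT-labelled LC-MS/MS over three independent experiments.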

Target	NP40-soluble protein abundance
SYTL1 (UniProt Q8IYJ3)	0.998 ± 0.022
TSEN54 (UniProt Q7Z6J9)	1.01 ± 0.028
MRPL50 (UniProt Q8N5N7)	1.06 ± 0.038
TTC5 (UniProt Q8N0Z6)	1.01 ± 0.026
PDSS2 (UniProt Q86YH6)	1 ± 0.021
UniProt Q8NBU5	1.01 ± 0.026
USP48 (UniProt Q86UV5)	0.98 ± 0.037
UniProt Q86VV8 and related entries	0.981 ± 0.042
UniProt Q8N128 and related entries	1 ± 0.047
UniProt Q86W50	0.968 ± 0.023
UniProt Q8N8A2 and related entries	1.01 ± 0.015
ANKRD52 (UniProt Q8NB46)	1.01 ± 0.022
ERI1 (UniProt Q8IV48)	0.977 ± 0.045
UniProt Q8IX12 and related entries	0.985 ± 0.02
PELP1 (UniProt Q8IZL8)	0.999 ± 0.024
CAND1 (UniProt Q86VP6)	1.01 ± 0.04
MLKL (UniProt Q8NB16)	1.02 ± 0.033
UniProt Q8N9B5 and related entries	1.03 ± 0.046
TSPYL5 (UniProt Q86VY4)	0.986 ± 0.019

Target	NP40-soluble protein abundance
UniProt Q8N4V1 and related entries	0.994 ± 0.02
UniProt Q7Z6V5 and related entries	0.966 ± 0.055
RFLNB (UniProt Q8N5W9)	1.03 ± 0.032
UniProt Q86YS7	0.978 ± 0.042
PARG (UniProt Q86W56)	1.004 ± 0.0026
KRI1 (UniProt Q8N9T8)	0.992 ± 0.015
UniProt Q8N983-4|B1AL05 and related entries	1.05 ± 0.016
PTAR1 (UniProt Q7Z6K3)	0.995 ± 0.014
LNX2 (UniProt Q8N448)	1 ± 0.02
UniProt Q8N954 and related entries	1.01 ± 0.043
UniProt Q8N5M4 and related entries	0.933 ± 0.047
ZCCHC7 (UniProt Q8N3Z6)	1.02 ± 0.016
UniProt Q86UU1 and related entries	0.997 ± 0.01
ASCC3 (UniProt Q8N3C0)	1 ± 0.028
METTL3 (UniProt Q86U44)	0.9929 ± 0.0058
ARL6IP6 (UniProt Q8N6S5)	1 ± 0.063
C5orf24 (UniProt Q7Z6I8)	0.973 ± 0.015
UniProt Q8IU85 and related entries	1.01 ± 0.051
UniProt Q8N5U6 and related entries	0.971 ± 0.012

Same assay, conditions: concentration: 0.5mM

Target	NP40-soluble protein abundance
SYTL1 (UniProt Q8IYJ3)	0.989 ± 0.022
TSEN54 (UniProt Q7Z6J9)	0.994 ± 0.027
MRPL50 (UniProt Q8N5N7)	1.05 ± 0.068
TTC5 (UniProt Q8N0Z6)	1 ± 0.054
PDSS2 (UniProt Q86YH6)	0.992 ± 0.013
UniProt Q8NBU5	1.04 ± 0.012
USP48 (UniProt Q86UV5)	0.983 ± 0.0014
UniProt Q86VV8 and related entries	0.953 ± 0.088
UniProt Q8N128 and related entries	1.02 ± 0.023
UniProt Q86W50	0.962 ± 0.036
UniProt Q8N8A2 and related entries	0.981 ± 0.041
ANKRD52 (UniProt Q8NB46)	0.991 ± 0.024
ERI1 (UniProt Q8IV48)	0.97 ± 0.092
UniProt Q8IX12 and related entries	0.965 ± 0.018
PELP1 (UniProt Q8IZL8)	0.989 ± 0.029
CAND1 (UniProt Q86VP6)	1 ± 0.03
MLKL (UniProt Q8NB16)	0.99 ± 0.027
UniProt Q8N9B5 and related entries	1.02 ± 0.036
TSPYL5 (UniProt Q86VY4)	1.03 ± 0.037

Target	NP40-soluble protein abundance
UniProt Q8N4V1 and related entries	1.03 ± 0.031
UniProt Q7Z6V5 and related entries	1.02 ± 0.039
RFLNB (UniProt Q8N5W9)	1.01 ± 0.051
UniProt Q86YS7	0.9707 ± 0.0077
PARG (UniProt Q86W56)	1.03 ± 0.019
KRI1 (UniProt Q8N9T8)	1.03 ± 0.034
UniProt Q8N983-4|B1AL05 and related entries	1.02 ± 0.029
PTAR1 (UniProt Q7Z6K3)	0.995 ± 0.024
LNX2 (UniProt Q8N448)	1.01 ± 0.026
UniProt Q8N954 and related entries	1.01 ± 0.06
UniProt Q8N5M4 and related entries	0.98 ± 0.096
ZCCHC7 (UniProt Q8N3Z6)	1.012 ± 0.0054
UniProt Q86UU1 and related entries	0.999 ± 0.033
ASCC3 (UniProt Q8N3C0)	1.03 ± 0.051
METTL3 (UniProt Q86U44)	1.01 ± 0.027
ARL6IP6 (UniProt Q8N6S5)	0.987 ± 0.057
C5orf24 (UniProt Q7Z6I8)	0.99 ± 0.024
UniProt Q8IU85 and related entries	0.992 ± 0.083
UniProt Q8N5U6 and related entries	0.996 ± 0.041
